According to patent US20250186321A1, “FORMULATION USING AMINO ACID AND CARBOXYLIC ACID, ORGANIC SALT, AND COMPOSITION COMPRISING SAME AND USE THEREOF” (MIYOSHI OIL & FAT CO., LTD., priority 2021, published 2025):

Legend:
[1] = Evaluation on hair surface improvement (SEM of damaged hair); settings: 1 wt. % in 50 wt. % ethanol aqueous solution, damaged hair immersed 15 minutes
[2] = Sensory evaluation 1 (spreadability, moisture retention feeling, non-stickiness on skin); settings: diluted to 20 wt. %, sprayed on the skin; scale of 1 to 5; average of five panel members
[3] = Adhesiveness to hair 1 (adhesion rate); set-up: species or system human; settings: healthy hair immersed for 60 minutes in 80 wt. % aqueous solution; from hair weight before and after

| SMILES | hair surface improvement (raising of cuticles) [1] | hair surface improvement (raising of cuticles) ([1]; listed as Working example 690) | hair surface improvement (raising of cuticles) ([1]; listed as Working example 695) | Sensory evaluation 1: Moisture retention feeling [2] | Sensory evaluation 1: Non stickiness [2] | Sensory evaluation 1: Spreadability [2] | Adhesion rate of formulation [3] [%] |
| --- | --- | --- | --- | --- | --- | --- | --- |
| NCCCC[C@H](N)C(=O)O.O=C(O)[C@H](O)[C@@H](O)[C@H](O)[C@H](O)CO.O=C(O)[C@H](O)[C@@H](O)[C@H](O)[C@H](O)CO [Formulation 30] | particularly excellent hair surface improving effects | high levels of hair surface improvement effects | – | – | – | – | – |
| N=C(N)NCCC[C@H](N)C(=O)O.O=C(O)CC(O)(CC(=O)O)C(=O)O [Formulation 58] | particularly excellent hair surface improving effects | – | high levels of hair surface improvement effects | – | – | – | – |
| CC(O)C(=O)[O-].[K+] (stereo not drawn) [Formulation 428] | – | – | – | 1.4 | 2.4 | 1.2 | 0.4 |
| CCCC[N+](CCCC)(CCCC)CCCC.[Br-] [Formulation 430] | – | – | – | – | – | – | 1.0 |
| Cl.NCCCC[C@H](N)C(=O)O [Formulation 429] | – | – | – | 1.5 | 2.2 | 1.4 | 0.6 |
| OCC(O)CO [Formulation 432] | – | – | – | 3.3 | 2.1 | 2.8 | 1.1 |
| CCCCn1cc[n+](C)c1.F[B-](F)(F)F [Formulation 431] | – | – | – | – | – | – | 0.6 |
